Experimental data reported in patent US9284543B2, “Neutral active soluble truncated PH20 polypeptides and uses thereof” (Halozyme, Inc., priority 2008, dated 2016).

B1: SPAM1-ILFL: C-terminally truncated human PH20, precursor 501 aa (SEQ ID NO:6), mature 466 aa (SEQ ID NO:58) (protein, listed as Homo sapiens)
chain 1: MGVLKFKHIFFRSFVKSSGVSQIVFTFLLIPCCLTLNFRAPPVIPNVPFLWAWNAPSEFCLGKFDEPLDMSLFSFIGSPRINATGQGVTIFYVDRLGYYPYIDSITGVTVNGGIPQKISLQDHLDKAKKDITFYMPVDNLGMAVIDWEEWRPTWARNWKPKDVYKNRSIELVQQQNVQLSLTEATEKAKQEFEKAGKDFLVETIKLGKLLRPNHLWGYYLFPDCYNHHYKKPGYNGSCFNVEIKRNDDLSWLWNESTALYPSIYLNTQQSPVAATLYVRNRVREAIRVSKIPDAKSPLPVFAYTRIVFTDQVLKFLSQDELVYTFGETVALGASGIVIWGTLSIMRSMKSCLLLDNYMETILNPYIINVTLAAKMCSQVLCQEQGVCIRKNWNSSDYLHLNPDNFAIQLEKGGKFTVRGKPTLEDLEQFSEKFYCSCYSTLSCKEKADVKDTDAVDVCIADGVCIDAFLKPPMETEEPQIFYNASPSTLSATMFIVSILFL
chain 2: LNFRAPPVIPNVPFLWAWNAPSEFCLGKFDEPLDMSLFSFIGSPRINATGQGVTIFYVDRLGYYPYIDSITGVTVNGGIPQKISLQDHLDKAKKDITFYMPVDNLGMAVIDWEEWRPTWARNWKPKDVYKNRSIELVQQQNVQLSLTEATEKAKQEFEKAGKDFLVETIKLGKLLRPNHLWGYYLFPDCYNHHYKKPGYNGSCFNVEIKRNDDLSWLWNESTALYPSIYLNTQQSPVAATLYVRNRVREAIRVSKIPDAKSPLPVFAYTRIVFTDQVLKFLSQDELVYTFGETVALGASGIVIWGTLSIMRSMKSCLLLDNYMETILNPYIINVTLAAKMCSQVLCQEQGVCIRKNWNSSDYLHLNPDNFAIQLEKGGKFTVRGKPTLEDLEQFSEKFYCSCYSTLSCKEKADVKDTDAVDVCIADGVCIDAFLKPPMETEEPQIFYNASPSTLSATMFIVSILFL
modifications: HuPH20 precursor 1-501; mature HuPH20 36-501
B2: SPAM1-SILF: C-terminally truncated human PH20, precursor 500 aa (SEQ ID NO:48), mature 465 aa (SEQ ID NO:100) (protein, listed as Homo sapiens)
chain 1: MGVLKFKHIFFRSFVKSSGVSQIVFTFLLIPCCLTLNFRAPPVIPNVPFLWAWNAPSEFCLGKFDEPLDMSLFSFIGSPRINATGQGVTIFYVDRLGYYPYIDSITGVTVNGGIPQKISLQDHLDKAKKDITFYMPVDNLGMAVIDWEEWRPTWARNWKPKDVYKNRSIELVQQQNVQLSLTEATEKAKQEFEKAGKDFLVETIKLGKLLRPNHLWGYYLFPDCYNHHYKKPGYNGSCFNVEIKRNDDLSWLWNESTALYPSIYLNTQQSPVAATLYVRNRVREAIRVSKIPDAKSPLPVFAYTRIVFTDQVLKFLSQDELVYTFGETVALGASGIVIWGTLSIMRSMKSCLLLDNYMETILNPYIINVTLAAKMCSQVLCQEQGVCIRKNWNSSDYLHLNPDNFAIQLEKGGKFTVRGKPTLEDLEQFSEKFYCSCYSTLSCKEKADVKDTDAVDVCIADGVCIDAFLKPPMETEEPQIFYNASPSTLSATMFIVSILF
chain 2: LNFRAPPVIPNVPFLWAWNAPSEFCLGKFDEPLDMSLFSFIGSPRINATGQGVTIFYVDRLGYYPYIDSITGVTVNGGIPQKISLQDHLDKAKKDITFYMPVDNLGMAVIDWEEWRPTWARNWKPKDVYKNRSIELVQQQNVQLSLTEATEKAKQEFEKAGKDFLVETIKLGKLLRPNHLWGYYLFPDCYNHHYKKPGYNGSCFNVEIKRNDDLSWLWNESTALYPSIYLNTQQSPVAATLYVRNRVREAIRVSKIPDAKSPLPVFAYTRIVFTDQVLKFLSQDELVYTFGETVALGASGIVIWGTLSIMRSMKSCLLLDNYMETILNPYIINVTLAAKMCSQVLCQEQGVCIRKNWNSSDYLHLNPDNFAIQLEKGGKFTVRGKPTLEDLEQFSEKFYCSCYSTLSCKEKADVKDTDAVDVCIADGVCIDAFLKPPMETEEPQIFYNASPSTLSATMFIVSILF
modifications: HuPH20 precursor 1-500; Mature HuPH20 36-500
B3: SPAM1-VSIL: C-terminally truncated human PH20, precursor 499 aa (SEQ ID NO:7), mature 464 aa (SEQ ID NO:59) (protein, listed as Homo sapiens)
chain: LNFRAPPVIPNVPFLWAWNAPSEFCLGKFDEPLDMSLFSFIGSPRINATGQGVTIFYVDRLGYYPYIDSITGVTVNGGIPQKISLQDHLDKAKKDITFYMPVDNLGMAVIDWEEWRPTWARNWKPKDVYKNRSIELVQQQNVQLSLTEATEKAKQEFEKAGKDFLVETIKLGKLLRPNHLWGYYLFPDCYNHHYKKPGYNGSCFNVEIKRNDDLSWLWNESTALYPSIYLNTQQSPVAATLYVRNRVREAIRVSKIPDAKSPLPVFAYTRIVFTDQVLKFLSQDELVYTFGETVALGASGIVIWGTLSIMRSMKSCLLLDNYMETILNPYIINVTLAAKMCSQVLCQEQGVCIRKNWNSSDYLHLNPDNFAIQLEKGGKFTVRGKPTLEDLEQFSEKFYCSCYSTLSCKEKADVKDTDAVDVCIADGVCIDAFLKPPMETEEPQIFYNASPSTLSATMFIVSIL
modifications: mature HuPH20 36-499
B4: SPAM1-IVSI: C-terminally truncated human PH20, precursor 498 aa (SEQ ID NO:49), mature 463 aa (SEQ ID NO:101) (protein, listed as Homo sapiens)
chain 1: MGVLKFKHIFFRSFVKSSGVSQIVFTFLLIPCCLTLNFRAPPVIPNVPFLWAWNAPSEFCLGKFDEPLDMSLFSFIGSPRINATGQGVTIFYVDRLGYYPYIDSITGVTVNGGIPQKISLQDHLDKAKKDITFYMPVDNLGMAVIDWEEWRPTWARNWKPKDVYKNRSIELVQQQNVQLSLTEATEKAKQEFEKAGKDFLVETIKLGKLLRPNHLWGYYLFPDCYNHHYKKPGYNGSCFNVEIKRNDDLSWLWNESTALYPSIYLNTQQSPVAATLYVRNRVREAIRVSKIPDAKSPLPVFAYTRIVFTDQVLKFLSQDELVYTFGETVALGASGIVIWGTLSIMRSMKSCLLLDNYMETILNPYIINVTLAAKMCSQVLCQEQGVCIRKNWNSSDYLHLNPDNFAIQLEKGGKFTVRGKPTLEDLEQFSEKFYCSCYSTLSCKEKADVKDTDAVDVCIADGVCIDAFLKPPMETEEPQIFYNASPSTLSATMFIVSI
chain 2: LNFRAPPVIPNVPFLWAWNAPSEFCLGKFDEPLDMSLFSFIGSPRINATGQGVTIFYVDRLGYYPYIDSITGVTVNGGIPQKISLQDHLDKAKKDITFYMPVDNLGMAVIDWEEWRPTWARNWKPKDVYKNRSIELVQQQNVQLSLTEATEKAKQEFEKAGKDFLVETIKLGKLLRPNHLWGYYLFPDCYNHHYKKPGYNGSCFNVEIKRNDDLSWLWNESTALYPSIYLNTQQSPVAATLYVRNRVREAIRVSKIPDAKSPLPVFAYTRIVFTDQVLKFLSQDELVYTFGETVALGASGIVIWGTLSIMRSMKSCLLLDNYMETILNPYIINVTLAAKMCSQVLCQEQGVCIRKNWNSSDYLHLNPDNFAIQLEKGGKFTVRGKPTLEDLEQFSEKFYCSCYSTLSCKEKADVKDTDAVDVCIADGVCIDAFLKPPMETEEPQIFYNASPSTLSATMFIVSI
modifications: HuPH20 precursor 1-498; Mature HuPH20 36-498
B5: SPAM1-AFLK: C-terminally truncated human PH20, precursor 470 aa (SEQ ID NO:30), mature 435 aa (SEQ ID NO:82) (protein, listed as Homo sapiens)
chain: MGVLKFKHIFFRSFVKSSGVSQIVFTFLLIPCCLTLNFRAPPVIPNVPFLWAWNAPSEFCLGKFDEPLDMSLFSFIGSPRINATGQGVTIFYVDRLGYYPYIDSITGVTVNGGIPQKISLQDHLDKAKKDITFYMPVDNLGMAVIDWEEWRPTWARNWKPKDVYKNRSIELVQQQNVQLSLTEATEKAKQEFEKAGKDFLVETIKLGKLLRPNHLWGYYLFPDCYNHHYKKPGYNGSCFNVEIKRNDDLSWLWNESTALYPSIYLNTQQSPVAATLYVRNRVREAIRVSKIPDAKSPLPVFAYTRIVFTDQVLKFLSQDELVYTFGETVALGASGIVIWGTLSIMRSMKSCLLLDNYMETILNPYIINVTLAAKMCSQVLCQEQGVCIRKNWNSSDYLHLNPDNFAIQLEKGGKFTVRGKPTLEDLEQFSEKFYCSCYSTLSCKEKADVKDTDAVDVCIADGVCIDAFLK
modifications: HuPH20 precursor 1-470

Test system: CHO-S cells
Assay: Western blot analysis of PH20 expression in media and cells after transient expression
Type: cell-based, Chinese Hamster
Settings: band at approximately 66 kDa
Experimental: The mutant PH20-HZ24 plasmids generated in Example 1 were transiently […] into CHO—S cells (derived from Chinese Hamster Ovary CHO K1 cells) using GeneJuice® (Novagen) according to the manufacturer's instructions. In short, the CHO—S cells were grown in CD CHO medium supplemented with L-glutamine. Prior to transfection, the CHO—S cells were plated in 6-well plates, with approximately 5×10^5 cells per well, and grown overnight at 37° C. with 5% CO2. The medium was then removed and the CHO—S cells were washed 2 times with 1 mL serum-free medium. GeneJuice® was mixed with serum-free media followed by the addition of 2 μg mutant-HZ24 DNA. After incubating at room temperature for 5-15 minutes, the GeneJuice®/DNA mixture was added dropwise to an individual well containing the washed CHO—S cells. After 4 hours, the medium was replaced with 1 mL CD-CHO medium supplemented with L-glutamine and the cells were incubated for 72 hours at 37° C. with 5% CO2. Following expression, the media and cells were harvested separately.
The mutant PH20-HZ24 plasmids generated in Example 1 were transiently […] into CHO—S cells using GeneJuice® (Novagen) according to the manufacturer's instructions. […]
In this example, following transient expression, as described in Example 2 above, the media and cells were harvested separately and analyzed for PH20 expression and solublility by Western blot analysis. Solubility of the C-terminus truncation mutants was determined by examining whether the expressed protein was present in the growth media or in the cells. […] Cells expressing these mutants were treated with phosphoinositol-phospholipase C (PI-PLC), which cleaves the GPI-anchor allowing the release of soluble protein into the media, and the presence of PH20 in the resulting media and cells was determined by Western blot analysis.
Non-reduced samples were run on a 4-20% Tris-Glycine gel and transferred to PVDF membrane using iBlot (Invitrogen). For the Western blot, rabbit anti-PH20 IgG (0.5 μg/mL) was used as the primary antibody and HRP-conjugated goat anti-rabbit IgG (0.1 ng/mL, Cat#DC03L, EMD) was used as the secondary antibody. Evidence of expression is determined by a band at approximately 66 kDa, corresponding to recombinant human PH20 hyaluronidase.

| Molecule | Protein Expression | Protein Expression (listed as ILFL) | Protein Expression (listed as SILF) | Protein Expression (listed as VSIL) | Protein Expression (listed as IVSI) |
| --- | --- | --- | --- | --- | --- |
| B1 | WEAK | low expression | – | – | – |
| B2 | WEAK | – | low expression | – | – |
| B3 | WEAK | – | – | low expression | – |
| B4 | WEAK | – | – | – | low expression |
| B5 | YES | – | – | – | – |
